Results: publication PMC6813494
Results are given in words; binding and its absence hold for the method and conditions named.

Tests used:
Test in all cases: two-hybrid
[1] = target: PslG (P. aeruginosa PAO1) (UniProt Q9I1N2)
[2] = target: PslA (P. aeruginosa PAO1) (UniProt Q9I1N8)
[3] = target: T1, PslG_(31-442) (P. aeruginosa PAO1) (UniProt Q9I1N2)
T1 sequence: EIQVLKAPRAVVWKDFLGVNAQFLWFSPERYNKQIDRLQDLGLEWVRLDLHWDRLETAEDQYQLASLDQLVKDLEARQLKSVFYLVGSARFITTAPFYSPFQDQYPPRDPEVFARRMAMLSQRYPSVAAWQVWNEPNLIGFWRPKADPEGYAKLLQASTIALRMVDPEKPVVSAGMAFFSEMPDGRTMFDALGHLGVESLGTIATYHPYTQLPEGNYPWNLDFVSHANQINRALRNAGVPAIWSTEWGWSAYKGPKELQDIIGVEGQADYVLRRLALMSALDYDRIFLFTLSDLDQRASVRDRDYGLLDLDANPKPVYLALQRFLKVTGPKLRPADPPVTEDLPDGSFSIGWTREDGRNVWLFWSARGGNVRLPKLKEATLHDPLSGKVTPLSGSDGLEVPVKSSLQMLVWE

Measured: binding

PslA (from UniProt Q9I1N8 1-478)
no binding: all assays above

PslG (from UniProt Q9I1N2 1-442)
no binding: all assays above

B1: PslG_(31-442) (domain or fragment, UniProt Q9I1N2 31-442)
chain: EIQVLKAPRAVVWKDFLGVNAQFLWFSPERYNKQIDRLQDLGLEWVRLDLHWDRLETAEDQYQLASLDQLVKDLEARQLKSVFYLVGSARFITTAPFYSPFQDQYPPRDPEVFARRMAMLSQRYPSVAAWQVWNEPNLIGFWRPKADPEGYAKLLQASTIALRMVDPEKPVVSAGMAFFSEMPDGRTMFDALGHLGVESLGTIATYHPYTQLPEGNYPWNLDFVSHANQINRALRNAGVPAIWSTEWGWSAYKGPKELQDIIGVEGQADYVLRRLALMSALDYDRIFLFTLSDLDQRASVRDRDYGLLDLDANPKPVYLALQRFLKVTGPKLRPADPPVTEDLPDGSFSIGWTREDGRNVWLFWSARGGNVRLPKLKEATLHDPLSGKVTPLSGSDGLEVPVKSSLQMLVWE
no binding: all assays above
